From patent publication US20240099951A1, “HAIR GROWTH STIMULANT” (ADJUVANT HOLDINGS CO., LTD., priority 2020, published 2024)
At least one structure is not confirmed: it was looked up by name or label, or the drawing left a doubt.

Tested on: skin samples derived from C57BL/6N mouse dorsal body hair skin grafted onto Balb/c nu/nu mice
Assay: Evaluation of hair growth activity: drug applied on skin samples transplanted in mice
Format: in vivo
Settings: solution containing 5%, 3%, or 1% minoxidil
Experimental: C57BL/6N mice (male) and Balb/c nu/nu mice (female) were purchased from Japan SLC, Inc. (Japan) and bred, and were thereafter made available for the following testing. Note that the testing and breeding of animals complied with pertinent laws, regulations, ordinances, and guidelines, and was performed with the approval of the Experimental Ethics Review Board of the Institute of Physical and Chemical Research. The following reagents were respectively prepared. • Comparative Example 1: 60% aqueous ethanol solution • Comparative Example 2: 5% minoxidil solution • Comparative Example 3: 3% minoxidil solution • Comparative Example 4: 1% minoxidil solution • Working Example 1: 3% phytosphingosine solution • Working Example 2: 1% phytosphingosine solution To collect dorsal body hair skin in the form of anagen stage VI skin 12 to 14 days following depilation, C57BL/6N mice of age 7 to 8 weeks were depilated at locations where dorsal body hair skin was intended to be collected, and were bred for 12 to 14 days. […] The protective tape was removed 5 to 7 days following transplantation, and survival of the transplanted skin samples derived from dorsal body hair skin was determined by visual inspection or digital microscopy (Keyence Corporation; Japan), after which follow-up observation was carried out. […]

Nc1cc(N2CCCCC2)nc(N)[n+]1[O-] [minoxidil]
hair growth activity: hair growth activity was observed
hair shaft elongation rate and maximum hair shaft length as compared with reference data: significant improvement
